The assay has as its target T1, Mer receptor tyrosine kinase, full length (UniProt Q60805).
T1 sequence: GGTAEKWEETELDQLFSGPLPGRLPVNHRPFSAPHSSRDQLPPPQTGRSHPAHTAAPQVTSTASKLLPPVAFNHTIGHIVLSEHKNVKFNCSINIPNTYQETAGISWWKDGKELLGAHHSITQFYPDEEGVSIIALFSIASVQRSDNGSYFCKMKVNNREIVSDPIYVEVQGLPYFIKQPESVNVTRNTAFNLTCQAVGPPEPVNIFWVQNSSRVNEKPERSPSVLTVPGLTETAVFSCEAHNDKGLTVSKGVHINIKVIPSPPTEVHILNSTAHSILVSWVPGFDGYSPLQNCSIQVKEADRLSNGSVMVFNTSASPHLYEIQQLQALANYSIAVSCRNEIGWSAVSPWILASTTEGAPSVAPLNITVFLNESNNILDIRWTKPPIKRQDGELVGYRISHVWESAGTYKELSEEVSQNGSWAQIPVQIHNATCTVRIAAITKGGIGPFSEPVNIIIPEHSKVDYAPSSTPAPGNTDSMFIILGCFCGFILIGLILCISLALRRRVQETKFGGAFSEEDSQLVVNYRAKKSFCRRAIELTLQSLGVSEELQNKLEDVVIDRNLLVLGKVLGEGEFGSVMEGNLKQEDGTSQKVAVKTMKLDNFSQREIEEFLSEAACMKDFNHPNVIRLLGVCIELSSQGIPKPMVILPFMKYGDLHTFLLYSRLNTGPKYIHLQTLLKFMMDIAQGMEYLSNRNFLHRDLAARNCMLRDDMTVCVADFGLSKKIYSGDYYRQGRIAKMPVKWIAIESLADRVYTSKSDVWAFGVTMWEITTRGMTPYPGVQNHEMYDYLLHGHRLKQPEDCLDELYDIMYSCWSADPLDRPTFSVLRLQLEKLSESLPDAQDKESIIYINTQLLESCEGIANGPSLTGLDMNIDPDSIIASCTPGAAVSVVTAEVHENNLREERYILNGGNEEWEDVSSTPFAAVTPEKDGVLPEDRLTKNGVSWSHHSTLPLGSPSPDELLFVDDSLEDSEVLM
Kind of assay: co-IP; HEK293T lysates (0.8 mg) with 1.4 ug anti-Mer antibody (ab184086) and Protein A-agarose at 4 C overnight; anti-Flag Western blot; cells unstimulated or stimulated with 120 ng/mL Gas6 for 15 min. For orientation: Immunoblotting shows a protein as a band on a membrane.

Protein sequences, listed by entry. Tags and fused reporters are not part of them.
UniProt Q07912: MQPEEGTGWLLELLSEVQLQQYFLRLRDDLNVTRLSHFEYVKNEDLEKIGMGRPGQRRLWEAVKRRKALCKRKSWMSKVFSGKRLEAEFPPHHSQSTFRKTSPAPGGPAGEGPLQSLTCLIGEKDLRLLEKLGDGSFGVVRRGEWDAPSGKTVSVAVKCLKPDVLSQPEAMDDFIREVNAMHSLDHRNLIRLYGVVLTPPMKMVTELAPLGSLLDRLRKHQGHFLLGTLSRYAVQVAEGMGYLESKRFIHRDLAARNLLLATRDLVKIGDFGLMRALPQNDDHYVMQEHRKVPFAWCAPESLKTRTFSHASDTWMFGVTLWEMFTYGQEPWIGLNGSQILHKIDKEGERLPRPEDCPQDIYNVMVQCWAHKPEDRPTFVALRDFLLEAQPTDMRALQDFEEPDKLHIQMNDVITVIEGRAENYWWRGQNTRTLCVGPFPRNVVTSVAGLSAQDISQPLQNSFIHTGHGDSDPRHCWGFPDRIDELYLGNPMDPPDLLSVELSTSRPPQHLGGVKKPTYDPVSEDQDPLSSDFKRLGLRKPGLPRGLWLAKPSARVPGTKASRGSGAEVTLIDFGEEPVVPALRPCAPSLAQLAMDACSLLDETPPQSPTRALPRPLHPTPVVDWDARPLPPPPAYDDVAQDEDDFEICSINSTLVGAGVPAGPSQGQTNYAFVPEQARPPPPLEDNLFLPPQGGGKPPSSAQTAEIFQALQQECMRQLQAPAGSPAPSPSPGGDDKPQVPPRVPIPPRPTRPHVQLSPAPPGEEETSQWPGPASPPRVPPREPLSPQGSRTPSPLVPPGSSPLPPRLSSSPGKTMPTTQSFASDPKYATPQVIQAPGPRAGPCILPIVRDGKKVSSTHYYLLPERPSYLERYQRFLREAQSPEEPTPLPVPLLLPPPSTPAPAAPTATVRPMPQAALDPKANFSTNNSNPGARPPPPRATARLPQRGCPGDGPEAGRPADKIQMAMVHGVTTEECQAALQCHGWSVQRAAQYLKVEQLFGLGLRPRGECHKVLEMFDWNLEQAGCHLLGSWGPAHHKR

Among the data in PMC10473914, “Phosphorylation of Ack1 by the Receptor Tyrosine Kinase Mer” (Kinases and phosphatases, 2023) are binding values, retold here.

No constants are given. Whether binding was seen depends on the method and setting. In cells and extracts the contact can be indirect. Some results given as binding are weak or reduced against the parent protein; the word gives no strength.

Take “Flag-tagged full-length Ack1, wild type (from UniProt Q07912 1-1038) (enzyme)”: the binding result is given as “binds”.
